The source of these data is PMC4520572, “Processive ATP-driven Substrate Disassembly by the N-Ethylmaleimide-sensitive Factor (NSF) Molecular Machine*^([image sbox.jpg])^♦” (The Journal of Biological Chemistry, 2013).

This data set concerns the molecule itself. Nature of the data set: SDS-PAGE of an SDS-stable oligomer; purified protein at 0.5 μg/μl in Laemmli sample buffer with DTT, boiled or not, Any kD denaturing polyacrylamide gel.

B1: GCN4 tetramer (tandem repeat of the GCN4-pLI tetramer) (designed binder)
chain: RMKQIEDKLEEILSKLYHIENELARIKKLLGERRMKQIEDKLEEILSKLYHIENELARIKKLLGER
A word on the stoichiometry N: it is the number of molecules, sites or subunits per partner or assembly. In the case of B1, the “stoichiometry N” value turned out to be 4.
